The results in this text go back to patent publication US20040102382A1, “Targeting peptides” (priority 2002, published 2004).

This data set concerns heart. The data set is described as follows: In vivo phage display selection targeting heart. The conditions noted are these: after three rounds of selection. More on the design: species or system Balb/c mice.

Take HFTFPQQQPPRP: the “Frequency (number of times the sequence was found/number of sequences done)” value was 3/50. As to QTSSPTPLSHTQ, the “Frequency (number of times the sequence was found/number of sequences done)” value is 5/50. Next, THPRFAR [X1THPRFATX2]: 10/50; LSPQRASQRLYS: 3/50; YPSAPPQWLTNT: 4/50. Turning to SGRIPYL, the “Frequency (number of times the sequence was found/number of sequences done)” value is recorded as 3/50.

As for HLPTSSLFDTTH, the “Frequency (number of times the sequence was found/number of sequences done)” value is on record as 4/50. Turning to HWAPSMYDYVSW, the “Frequency (number of times the sequence was found/number of sequences done)” value is reported as 12/50.

For WKSELPVQRARF, the “Frequency (number of times the sequence was found/number of sequences done)” value is listed as 3/50. On to HVNKLHG, for which the “Frequency (number of times the sequence was found/number of sequences done)” value is 3/50.
